Results are given in words; binding and its absence hold for the method and conditions named. Binding seen in cells or lysates may run through a third protein. A result given as binding can be weak or reduced; the word gives no strength. For some of these results: Tags and fused reporters may be left off the sequences shown.
T1: Flag-tagged UBF (mouse) (UniProt P25976)
T1 sequence: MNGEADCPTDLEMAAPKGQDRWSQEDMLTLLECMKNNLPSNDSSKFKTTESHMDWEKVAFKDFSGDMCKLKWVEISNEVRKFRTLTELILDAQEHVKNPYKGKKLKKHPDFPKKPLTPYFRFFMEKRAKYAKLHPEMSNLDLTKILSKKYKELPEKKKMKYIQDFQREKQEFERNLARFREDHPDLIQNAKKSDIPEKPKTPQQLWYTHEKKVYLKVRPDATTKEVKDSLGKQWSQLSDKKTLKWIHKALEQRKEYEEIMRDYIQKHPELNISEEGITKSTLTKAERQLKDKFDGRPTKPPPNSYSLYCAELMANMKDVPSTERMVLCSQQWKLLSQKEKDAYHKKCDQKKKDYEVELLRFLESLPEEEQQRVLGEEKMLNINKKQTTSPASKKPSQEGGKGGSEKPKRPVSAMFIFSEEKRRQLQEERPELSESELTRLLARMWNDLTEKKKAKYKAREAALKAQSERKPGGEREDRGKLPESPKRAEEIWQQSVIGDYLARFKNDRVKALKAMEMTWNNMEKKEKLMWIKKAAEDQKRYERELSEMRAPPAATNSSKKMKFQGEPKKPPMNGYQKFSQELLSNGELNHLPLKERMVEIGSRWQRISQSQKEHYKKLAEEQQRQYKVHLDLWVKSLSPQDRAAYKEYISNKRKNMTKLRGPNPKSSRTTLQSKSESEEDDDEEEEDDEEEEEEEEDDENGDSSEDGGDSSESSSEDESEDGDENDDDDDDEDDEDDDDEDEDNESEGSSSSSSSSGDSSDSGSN

B1: upstream binding factor (UBF) (protein, UniProt P25976-2 1-728)
chain: MNGEADCPTDLEMAAPKGQDRWSQEDMLTLLECMKNNLPSNDSSKFKTTESHMDWEKVAFKDFSGDMCKLKWVEISNEVRKFRTLTELILDAQEHVKNPYKGKKLKKHPDFPKKPLTPYFRFFMEKRAKYAKLHPEMSNLDLTKILSKKYKELPEKKKMKYIQDFQREKQEFERNLARFREDHPDLIQNAKKSDIPEKPKTPQQLWYTHEKKVYLKVRPDEIMRDYIQKHPELNISEEGITKSTLTKAERQLKDKFDGRPTKPPPNSYSLYCAELMANMKDVPSTERMVLCSQQWKLLSQKEKDAYHKKCDQKKKDYEVELLRFLESLPEEEQQRVLGEEKMLNINKKQTTSPASKKPSQEGGKGGSEKPKRPVSAMFIFSEEKRRQLQEERPELSESELTRLLARMWNDLTEKKKAKYKAREAALKAQSERKPGGEREDRGKLPESPKRAEEIWQQSVIGDYLARFKNDRVKALKAMEMTWNNMEKKEKLMWIKKAAEDQKRYERELSEMRAPPAATNSSKKMKFQGEPKKPPMNGYQKFSQELLSNGELNHLPLKERMVEIGSRWQRISQSQKEHYKKLAEEQQRQYKVHLDLWVKSLSPQDRAAYKEYISNKRKNMTKLRGPNPKSSRTTLQSKSESEEDDDEEEEDDEEEEEEEEDDENGDSSEDGGDSSESSSEDESEDGDENDDDDDDEDDEDDDDEDEDNESEGSSSSSSSSGDSSDSGSN

Key:
Flag-tagged UBF (mouse) = molecular target: T1, Flag-tagged UBF (mouse); experiment: co-IP; GFP tagged CTCF deletion mutants co-expressed with Flag tagged UBF in HEK293T cells; Flag pull-down (IP), detection with an antibody against GFP
[1] = molecular target: GST-tagged zinc finger (ZF) domain of CTCF (construct 1) (not stated (mouse or chicken cDNA cloned)); experiment: pull-down; GST fusion proteins from bacteria incubated with ES cell nuclear extracts; binding under low-salt conditions, washing more stringent; western blot with anti-UBF; only the target purified
[2] = molecular target: GST-tagged zinc finger (ZF) domain of CTCFL (construct 5) (mouse); experiment: as above

Molecule	binding (Flag-tagged UBF (mouse))	binding [1]	binding [2]
GFP tagged CTCF deletion mutant with the N-terminal zinc fingers (domain or fragment)	binds	–	–
GFP tagged CTCF deletion mutant with the C-terminal zinc fingers (domain or fragment)	binds	–	–
B1	–	binds	binds

— paper PMC2993708
